Test results published in paper PMC7578061, “Potent inhibition of tumour cell proliferation and immunoregulatory function by mitochondria-targeted atovaquone” (Scientific Reports, 2020).

System: MiaPaCa-2 and A549 cells
Assay: Cellular uptake by LC-MS/MS
Type: cell-based, human
Details: Mito10-ATO 0.1 and 1 µM, ATO 1-10 µM; 1, 2, 4 and 24 h

SMILES | Cellular uptake (LC-MS/MS)
O=C1C(OCCCCCCCCCC[P+](c2ccccc2)(c2ccccc2)c2ccccc2)=C([C@H]2CC[C@H](c3ccc(Cl)cc3)CC2)C(=O)c2ccccc21 [Mito10-ATO] | accumulated inside the cells with time
O=C1C(O)=C([C@H]2CC[C@H](c3ccc(Cl)cc3)CC2)C(=O)c2ccccc21 [ATO, Atovaquone] | considerably lower and did not accumulate
